Laboratory results: PubChem BioAssay AID2685 (National Center for Advancing Translational Sciences (NCATS), 2010)
The other results are listed elsewhere or left out. Further columns of the screen follow, without active or inactive calls. The list favours compounds with an active or inconclusive main result. The note in brackets gives the kind of curve behind each potency; many fits are weak.

Test: qHTS Assay for Lipid Storage Modulators in Drosophila S3 Cells;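 as to cell number change: cells counted by Cell Tracker Red CMTPX staining in the red channel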
Settings: BODIPY lipid droplet fluorescence, 18-24 h; for cell number change: measured here: cell count max response, cells fed with added oleic acid
How it was run: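 Laser-scanning cytometry quantifies lipid droplet accumulation (500–530 nm total intensity; droplet/cell object ratio) in oleic acid-fed (400 uM added) Drosophila S3 cells treated with a concentration series. 20 uM Triacsin C defined 100% inhibition.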

[1] = measured here: cell number channel AC50, cells fed with added oleic acid
[2] = measured here: lipid fluorescence (Fed channel) AC50, cells fed with added oleic acid

## Cc1ccc(C[n+]2c(-c3ccc(C)cc3)cc(-c3ccc(C)cc3)cc2-c2ccc(C)cc2)cc1
  cell number change: -89%
[1]
  AC50: 5.17 µM [falling, partial curve]
[2]
  AC50: 0.411 µM [falling, full curve]

## COc1ccc(CN2CCN(c3ccccc3F)CC2)c(OC)c1
  cell number change: 1.95%
[2]
  AC50: 5.17 µM [falling, single point]

## CC(C)C(=O)N1CCN(CCN=Cc2c(O)n(C)c(=O)n(C)c2=O)CC1
  cell number change: -19.6%
[2]
  AC50: 5.17 µM [rising, single point]

## Cc1ccc(C(=O)O)cc1N=Nc1c(O)[nH]c(=O)[nH]c1=O
  cell number change: -20.2%
[2]
  AC50: 0.116 µM [falling, full curve]

## CCCCn1c(O)c(C=NC2CC3CCC2(C)C3(C)C)c(=O)[nH]c1=O (stereo not drawn)
  cell number change: -33%
[1]
  AC50: 18.4 µM [falling, single point]

## CN(C)C(=O)Oc1ccc(Br)c2ccccc12
  cell number change: -3.28%
[2]
  AC50: 0.116 µM [falling, full curve, poor fit]

## O=C(c1cc2ccccn2n1)N1CCC2(CC1)OCCO2
  cell number change: -0.774%
[2]
  AC50: 0.731 µM [rising, partial curve]

## CCOC(=O)c1c(C)[nH]c(C)c1C(=O)C(Cc1ccccc1)N(C)C (stereo not drawn)
  cell number change: 23.9%
[2]
  AC50: 2.06 µM [rising, full curve]

## Fc1ccccc1CNCCc1ccc2c(c1)OCO2
  cell number change: 9.52%

## CCNC(=S)NCCC1=c2ccccc2=N/C1=C\c1c(O)n(C)c(=O)n(C)c1=O
  cell number change: -16.2%
[2]
  AC50: 29.1 µM [falling, single point]

## CCCCCn1c(=O)c(C(=O)Nc2nc(CC(=O)OCC)cs2)c(O)c2ccccc21
  cell number change: -23.2%
[1]
  AC50: 0.0058 µM [falling, full curve, poor fit]

## COc1ccc(OC)c([C@@H](O)[C@H](C)NC(C)(C)C)c1
  cell number change: -22.5%
[2]
  AC50: 29.1 µM [falling, single point]

## C=CCn1c(O)c(C=Nc2c(C)n(C)n(-c3ccccc3)c2=O)c(=O)[nH]c1=O
[2]
  AC50: 6.51 µM [rising, single point]

## Cc1cccc(NC(=O)COC(=O)c2cc(C)n(C3CC3)c2C)c1
[2]
  AC50: 4.11 µM [rising, single point]

## O=[N+]([O-])c1cc(-n2cnnn2)c(O)c([N+](=O)[O-])c1
  cell number change: 16.9%

## Cn1c(O)c(C=NCc2ccco2)c(=O)n(C)c1=O
[1]
  AC50: 6.51 µM [falling, single point]
[2]
  AC50: 2.59 µM [falling, partial curve]

## Cc1cc(NC(=O)COC(=O)c2c(C)nn(Cc3ccccc3Cl)c2C)no1
[1]
  AC50: 0.092 µM [rising, full curve, poor fit]
[2]
  AC50: 0.082 µM [rising, full curve, poor fit]

## COc1cc(CC2C(=O)N(C)C(=O)N(C)C2=O)ccc1OCc1ccccc1
  cell number change: -13%
[2]
  AC50: 32.6 µM [falling, single point]

## C/C(=N\NC(=O)c1ccccc1Cl)c1c(O)n(C2CCCCC2)c(=O)[nH]c1=O
  cell number change: -1.91%
[1]
  AC50: 3.26 µM [falling, single point]
[2]
  AC50: 3.66 µM [falling, partial curve]

## Cc1ccc(-n2c(-c3cccs3)nc3ccccc3c2=O)cc1
  cell number change: -5.74%
[2]
  AC50: 0.517 µM [rising, full curve, poor fit]

## CC(C)c1ccc(C2NCc3ccccc3-n3cccc32)cc1 (stereo not drawn)
  cell number change: -95.4%
[1]
  AC50: 14.6 µM [falling, partial curve]
[2]
  AC50: 20.6 µM [falling, partial curve]

## CN1CCN(c2cc(N3CCCCCC3)c(F)cc2[N+](=O)[O-])CC1
  cell number change: 61.6%
[1]
  AC50: 8.2 µM [rising, partial curve, poor fit]
[2]
  AC50: 29.1 µM [rising, partial curve, poor fit]

## Fc1ccccc1CN1CCN(c2ccc(Cl)cc2)CC1
  cell number change: -20.9%
[2]
  AC50: 18.4 µM [falling, single point]

## COc1ccc2c3c([nH]c2c1)C(C)NCC3 (stereo not drawn)
  cell number change: -5.52%
[2]
  AC50: 14.6 µM [falling, partial curve]

## O=C(c1ccc(F)cc1)C(Cc1ccccc1)N1CCCCC1 (stereo not drawn)
  cell number change: 49.4%

## COc1ccc(CC2C(=O)NC(=O)N(c3ccccc3)C2=O)c(OC)c1 (stereo not drawn)
  cell number change: 9.93%
[2]
  AC50: 0.731 µM [falling, single point]

## Cc1ccc(/C=C2\C(=O)NC(=S)N(c3ccc(F)cc3)C2=O)s1
  cell number change: -33.3%
[1]
  AC50: 29.1 µM [falling, single point]
[2]
  AC50: 29.1 µM [falling, single point]

## O=C(O)c1sc2cc(Cl)ccc2c1Cl
  cell number change: 13.4%

## C/C(=N\NC(=O)c1ccncc1)c1c(O)n(-c2ccccc2)c(=O)[nH]c1=O
  cell number change: -47.4%
[1]
  AC50: 0.651 µM [falling, full curve]
[2]
  AC50: 23.1 µM [falling, partial curve]
